These are yes or no findings as the source states them, for the method shown. In cells and extracts the contact can be indirect. Some results given as binding are weak or reduced against the parent protein; the word gives no strength.
Target: SIRT1 (UniProt Q96EB6)
Test: pull-down; GST pull-down; which partner carried GST is not told; no methods, figure or conditions are given

Protein sequences, listed by entry. Tags and fused reporters are not part of them.
UniProt Q96EB6: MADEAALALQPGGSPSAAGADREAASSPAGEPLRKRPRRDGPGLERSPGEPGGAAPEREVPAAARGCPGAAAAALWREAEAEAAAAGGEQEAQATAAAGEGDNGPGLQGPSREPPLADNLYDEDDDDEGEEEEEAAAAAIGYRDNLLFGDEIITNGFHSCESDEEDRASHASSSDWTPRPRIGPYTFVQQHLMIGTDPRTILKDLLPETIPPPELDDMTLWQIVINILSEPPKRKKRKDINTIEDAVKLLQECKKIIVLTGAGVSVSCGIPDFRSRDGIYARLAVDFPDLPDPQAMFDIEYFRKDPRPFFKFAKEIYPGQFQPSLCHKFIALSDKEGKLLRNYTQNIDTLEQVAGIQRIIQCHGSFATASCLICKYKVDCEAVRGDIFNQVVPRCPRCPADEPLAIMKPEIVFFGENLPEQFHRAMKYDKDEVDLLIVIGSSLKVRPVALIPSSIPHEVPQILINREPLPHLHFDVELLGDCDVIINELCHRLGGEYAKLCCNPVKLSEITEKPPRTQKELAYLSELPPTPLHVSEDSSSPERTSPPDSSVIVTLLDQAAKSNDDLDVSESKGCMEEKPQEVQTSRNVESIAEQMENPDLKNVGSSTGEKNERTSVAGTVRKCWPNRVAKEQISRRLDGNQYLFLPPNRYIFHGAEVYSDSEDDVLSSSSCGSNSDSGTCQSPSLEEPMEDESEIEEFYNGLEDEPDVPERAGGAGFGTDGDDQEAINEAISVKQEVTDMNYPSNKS
UniProt Q00613: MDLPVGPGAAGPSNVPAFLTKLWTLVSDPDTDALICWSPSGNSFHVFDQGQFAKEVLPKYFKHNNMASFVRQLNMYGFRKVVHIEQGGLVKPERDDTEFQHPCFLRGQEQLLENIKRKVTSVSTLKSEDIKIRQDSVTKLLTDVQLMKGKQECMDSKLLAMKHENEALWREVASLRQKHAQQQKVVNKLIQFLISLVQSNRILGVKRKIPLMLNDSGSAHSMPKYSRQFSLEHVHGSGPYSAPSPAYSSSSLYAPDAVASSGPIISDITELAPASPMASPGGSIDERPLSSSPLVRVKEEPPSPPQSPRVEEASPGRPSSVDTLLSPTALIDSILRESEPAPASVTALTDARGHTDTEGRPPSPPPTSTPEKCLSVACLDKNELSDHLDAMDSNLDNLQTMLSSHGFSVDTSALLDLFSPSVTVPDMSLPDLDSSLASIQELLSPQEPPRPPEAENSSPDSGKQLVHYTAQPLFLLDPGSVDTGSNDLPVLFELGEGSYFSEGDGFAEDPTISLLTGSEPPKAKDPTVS

- binding: binds
Substance: heat shock transcription factor 1 (HSF1) (from UniProt Q00613 1-529)

Reference: paper PMC3548779
